The experiment relates to SQ-20B cells. In words: IC50 determination by clonogenic cell kill (24 hour drug treatment, colonies scored after 2 to 3 weeks). It is filed as cell-based, human. As to conditions: 24 hour treatment. The method, then:
IC50 is defined as the concentration of the HDAC inhibitor that kills 50% of cells following treatment with the drug. To determine the IC50, a series of dilutions of drug is used over a broad range, for example 0-1.6 μg/ml. Approximately 100-400 cells are seeded into T-25 flasks in triplicate and treated with various concentrations of the drug. After a 24 hour treatment, the cells are washed with standard PBS (phosphate buffered saline) solution. Cells are then grown in fresh media for 2 to 3 weeks. Colonies are stained with crystal violet and scored. Concentrations of drugs showing 50% cell death represent the IC50 concentration.

Consider `O=C(CCCCCCC(=O)Nc1ccccc1)NO` [SAHA, suberonylanilide hydroxamic acid], for which the “IC50 (concentration that kills 50% of cells)” value came to 800 ng/mL.

The values above are taken from US20050222013A1, “Methods for the use of inhibitors of histone deacetylase as synergistic agents in cancer therapy” (Georgetown University, priority 2003, published 2005).
